According to the supplement of paper PMC10849652:
The other results are listed elsewhere or left out.

The chains behind the UniProt entries cited, without tags or fusion partners. Where a name states a change or a piece, a line headed by the entry shows the natural chain unless it says otherwise.
UniProt P29218: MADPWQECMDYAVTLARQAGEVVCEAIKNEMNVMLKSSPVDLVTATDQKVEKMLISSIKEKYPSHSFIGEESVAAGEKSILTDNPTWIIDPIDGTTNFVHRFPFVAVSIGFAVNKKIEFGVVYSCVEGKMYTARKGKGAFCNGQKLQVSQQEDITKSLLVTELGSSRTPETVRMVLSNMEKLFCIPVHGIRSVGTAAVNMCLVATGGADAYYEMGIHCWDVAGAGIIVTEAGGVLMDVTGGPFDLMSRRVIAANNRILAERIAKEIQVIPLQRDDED
UniProt Q9BUP3: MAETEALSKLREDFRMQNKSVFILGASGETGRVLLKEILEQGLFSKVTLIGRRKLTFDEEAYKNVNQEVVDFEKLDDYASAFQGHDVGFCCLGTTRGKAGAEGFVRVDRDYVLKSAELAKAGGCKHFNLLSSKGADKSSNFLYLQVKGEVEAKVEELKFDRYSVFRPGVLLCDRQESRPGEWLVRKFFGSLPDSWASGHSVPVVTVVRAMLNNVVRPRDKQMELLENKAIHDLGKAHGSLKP
UniProt C9J406: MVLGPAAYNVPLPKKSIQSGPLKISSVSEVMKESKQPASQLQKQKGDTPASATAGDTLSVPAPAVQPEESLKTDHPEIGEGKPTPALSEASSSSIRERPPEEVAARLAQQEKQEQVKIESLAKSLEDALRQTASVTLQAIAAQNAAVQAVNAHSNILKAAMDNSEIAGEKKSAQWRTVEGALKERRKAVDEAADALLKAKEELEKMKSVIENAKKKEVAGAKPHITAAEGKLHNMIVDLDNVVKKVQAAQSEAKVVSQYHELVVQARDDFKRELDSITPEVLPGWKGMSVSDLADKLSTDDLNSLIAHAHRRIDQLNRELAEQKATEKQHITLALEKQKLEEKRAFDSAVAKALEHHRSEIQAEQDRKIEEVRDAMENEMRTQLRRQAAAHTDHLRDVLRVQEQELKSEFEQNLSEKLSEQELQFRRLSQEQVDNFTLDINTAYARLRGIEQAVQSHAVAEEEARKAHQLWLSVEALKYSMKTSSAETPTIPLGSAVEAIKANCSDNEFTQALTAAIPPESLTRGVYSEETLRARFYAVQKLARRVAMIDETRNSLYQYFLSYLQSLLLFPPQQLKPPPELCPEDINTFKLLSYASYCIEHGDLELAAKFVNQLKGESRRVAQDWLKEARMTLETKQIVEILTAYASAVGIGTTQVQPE
UniProt Q92598: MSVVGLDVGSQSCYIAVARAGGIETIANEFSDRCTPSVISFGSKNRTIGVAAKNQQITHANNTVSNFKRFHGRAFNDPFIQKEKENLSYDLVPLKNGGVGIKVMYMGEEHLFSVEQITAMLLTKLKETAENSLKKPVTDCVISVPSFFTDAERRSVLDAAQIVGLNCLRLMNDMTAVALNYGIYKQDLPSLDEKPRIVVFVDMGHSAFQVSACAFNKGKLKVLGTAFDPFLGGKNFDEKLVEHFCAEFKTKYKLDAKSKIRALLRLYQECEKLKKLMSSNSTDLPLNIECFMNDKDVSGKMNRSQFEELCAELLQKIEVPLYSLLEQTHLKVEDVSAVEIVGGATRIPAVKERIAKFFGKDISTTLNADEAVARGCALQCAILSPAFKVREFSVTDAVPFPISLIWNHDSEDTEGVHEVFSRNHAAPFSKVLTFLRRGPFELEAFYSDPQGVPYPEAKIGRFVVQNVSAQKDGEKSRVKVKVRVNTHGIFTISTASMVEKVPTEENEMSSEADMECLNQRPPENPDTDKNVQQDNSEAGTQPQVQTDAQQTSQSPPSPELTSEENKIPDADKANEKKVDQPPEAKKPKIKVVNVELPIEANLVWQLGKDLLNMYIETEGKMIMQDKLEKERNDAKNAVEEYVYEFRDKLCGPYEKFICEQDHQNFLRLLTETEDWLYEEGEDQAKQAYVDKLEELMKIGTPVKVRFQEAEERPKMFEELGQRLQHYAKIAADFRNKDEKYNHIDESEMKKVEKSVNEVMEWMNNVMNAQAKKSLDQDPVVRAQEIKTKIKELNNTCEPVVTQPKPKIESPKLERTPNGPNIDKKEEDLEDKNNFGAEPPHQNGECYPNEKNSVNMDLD
UniProt Q659A1: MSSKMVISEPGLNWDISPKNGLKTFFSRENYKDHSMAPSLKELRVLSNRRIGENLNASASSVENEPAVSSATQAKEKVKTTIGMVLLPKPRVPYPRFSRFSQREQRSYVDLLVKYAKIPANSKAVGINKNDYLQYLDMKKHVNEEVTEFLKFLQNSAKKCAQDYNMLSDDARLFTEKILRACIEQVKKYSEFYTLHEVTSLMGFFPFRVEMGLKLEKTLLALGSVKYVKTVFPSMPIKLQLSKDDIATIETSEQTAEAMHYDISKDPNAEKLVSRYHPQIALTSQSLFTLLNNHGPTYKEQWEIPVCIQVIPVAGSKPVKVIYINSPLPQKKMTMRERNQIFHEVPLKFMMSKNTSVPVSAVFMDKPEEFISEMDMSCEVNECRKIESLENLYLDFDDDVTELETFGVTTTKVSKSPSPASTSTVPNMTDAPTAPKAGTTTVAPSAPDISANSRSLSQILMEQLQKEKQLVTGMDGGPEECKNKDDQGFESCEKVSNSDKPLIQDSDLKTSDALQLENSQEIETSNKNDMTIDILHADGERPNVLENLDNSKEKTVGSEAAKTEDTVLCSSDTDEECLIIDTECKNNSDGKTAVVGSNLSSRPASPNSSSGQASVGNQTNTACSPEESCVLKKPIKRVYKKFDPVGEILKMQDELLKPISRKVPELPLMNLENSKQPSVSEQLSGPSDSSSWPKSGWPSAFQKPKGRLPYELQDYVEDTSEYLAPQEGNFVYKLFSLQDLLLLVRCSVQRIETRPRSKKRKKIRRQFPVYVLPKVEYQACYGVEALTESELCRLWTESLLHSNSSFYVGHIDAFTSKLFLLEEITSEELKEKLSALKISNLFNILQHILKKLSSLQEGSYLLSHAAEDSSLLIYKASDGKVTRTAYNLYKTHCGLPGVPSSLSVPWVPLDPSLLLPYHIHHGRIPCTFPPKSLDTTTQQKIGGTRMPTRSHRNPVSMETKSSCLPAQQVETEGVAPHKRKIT
UniProt O60921: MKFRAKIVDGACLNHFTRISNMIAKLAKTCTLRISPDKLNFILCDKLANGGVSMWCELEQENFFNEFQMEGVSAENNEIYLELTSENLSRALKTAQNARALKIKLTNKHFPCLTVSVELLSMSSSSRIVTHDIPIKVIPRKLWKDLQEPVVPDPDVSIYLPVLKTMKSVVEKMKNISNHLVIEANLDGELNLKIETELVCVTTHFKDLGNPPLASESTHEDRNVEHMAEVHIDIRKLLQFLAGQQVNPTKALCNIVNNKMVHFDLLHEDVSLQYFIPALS
UniProt Q12905: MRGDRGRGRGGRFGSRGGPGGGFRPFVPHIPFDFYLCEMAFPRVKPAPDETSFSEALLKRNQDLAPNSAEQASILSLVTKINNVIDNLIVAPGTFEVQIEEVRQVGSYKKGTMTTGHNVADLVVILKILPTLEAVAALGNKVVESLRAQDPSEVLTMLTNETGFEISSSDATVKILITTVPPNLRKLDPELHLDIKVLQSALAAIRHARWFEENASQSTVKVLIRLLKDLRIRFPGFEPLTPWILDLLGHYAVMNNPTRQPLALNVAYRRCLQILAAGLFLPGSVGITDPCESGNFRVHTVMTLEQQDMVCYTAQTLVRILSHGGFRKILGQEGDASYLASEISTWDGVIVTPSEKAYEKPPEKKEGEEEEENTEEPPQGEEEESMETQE
UniProt Q9NVR2, whole entry, looked up: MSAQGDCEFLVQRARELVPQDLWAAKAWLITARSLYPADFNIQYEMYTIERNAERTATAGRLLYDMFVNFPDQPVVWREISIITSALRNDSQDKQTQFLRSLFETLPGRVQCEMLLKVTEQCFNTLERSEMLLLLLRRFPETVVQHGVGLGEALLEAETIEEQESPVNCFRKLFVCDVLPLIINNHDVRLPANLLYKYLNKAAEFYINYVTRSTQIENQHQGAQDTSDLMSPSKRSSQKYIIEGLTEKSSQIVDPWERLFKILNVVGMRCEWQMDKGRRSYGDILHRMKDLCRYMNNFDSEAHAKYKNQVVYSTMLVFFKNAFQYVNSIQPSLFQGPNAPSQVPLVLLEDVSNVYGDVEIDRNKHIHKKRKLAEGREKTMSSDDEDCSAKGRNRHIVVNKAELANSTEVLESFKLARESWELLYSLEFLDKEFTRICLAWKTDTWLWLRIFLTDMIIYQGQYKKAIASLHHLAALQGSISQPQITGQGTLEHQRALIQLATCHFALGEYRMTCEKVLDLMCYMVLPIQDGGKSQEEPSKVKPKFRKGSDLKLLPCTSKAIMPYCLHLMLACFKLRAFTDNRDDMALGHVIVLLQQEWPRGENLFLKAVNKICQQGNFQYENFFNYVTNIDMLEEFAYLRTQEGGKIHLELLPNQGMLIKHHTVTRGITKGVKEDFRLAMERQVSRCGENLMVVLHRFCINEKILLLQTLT
UniProt Q70UQ0: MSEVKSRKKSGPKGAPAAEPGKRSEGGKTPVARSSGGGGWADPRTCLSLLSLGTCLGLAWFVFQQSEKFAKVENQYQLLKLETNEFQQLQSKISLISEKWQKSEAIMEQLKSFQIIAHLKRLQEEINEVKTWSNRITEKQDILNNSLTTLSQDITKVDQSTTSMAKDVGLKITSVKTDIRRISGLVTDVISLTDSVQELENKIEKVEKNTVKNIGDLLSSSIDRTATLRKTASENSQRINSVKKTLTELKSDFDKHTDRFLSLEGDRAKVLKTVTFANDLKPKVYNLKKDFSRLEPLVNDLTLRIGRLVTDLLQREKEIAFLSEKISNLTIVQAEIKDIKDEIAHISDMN
UniProt O00458: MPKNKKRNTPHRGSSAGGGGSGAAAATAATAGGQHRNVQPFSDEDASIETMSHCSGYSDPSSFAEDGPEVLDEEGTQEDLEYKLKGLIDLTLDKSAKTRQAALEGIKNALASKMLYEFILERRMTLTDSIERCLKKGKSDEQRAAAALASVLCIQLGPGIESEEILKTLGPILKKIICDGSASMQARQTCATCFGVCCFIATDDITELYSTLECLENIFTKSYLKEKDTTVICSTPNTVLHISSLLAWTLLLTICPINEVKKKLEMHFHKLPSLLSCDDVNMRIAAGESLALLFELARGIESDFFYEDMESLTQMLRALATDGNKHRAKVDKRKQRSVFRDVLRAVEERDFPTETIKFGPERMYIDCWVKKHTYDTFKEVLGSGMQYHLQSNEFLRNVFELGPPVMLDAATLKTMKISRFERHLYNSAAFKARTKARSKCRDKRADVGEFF
UniProt Q9P2H3, whole entry, looked up: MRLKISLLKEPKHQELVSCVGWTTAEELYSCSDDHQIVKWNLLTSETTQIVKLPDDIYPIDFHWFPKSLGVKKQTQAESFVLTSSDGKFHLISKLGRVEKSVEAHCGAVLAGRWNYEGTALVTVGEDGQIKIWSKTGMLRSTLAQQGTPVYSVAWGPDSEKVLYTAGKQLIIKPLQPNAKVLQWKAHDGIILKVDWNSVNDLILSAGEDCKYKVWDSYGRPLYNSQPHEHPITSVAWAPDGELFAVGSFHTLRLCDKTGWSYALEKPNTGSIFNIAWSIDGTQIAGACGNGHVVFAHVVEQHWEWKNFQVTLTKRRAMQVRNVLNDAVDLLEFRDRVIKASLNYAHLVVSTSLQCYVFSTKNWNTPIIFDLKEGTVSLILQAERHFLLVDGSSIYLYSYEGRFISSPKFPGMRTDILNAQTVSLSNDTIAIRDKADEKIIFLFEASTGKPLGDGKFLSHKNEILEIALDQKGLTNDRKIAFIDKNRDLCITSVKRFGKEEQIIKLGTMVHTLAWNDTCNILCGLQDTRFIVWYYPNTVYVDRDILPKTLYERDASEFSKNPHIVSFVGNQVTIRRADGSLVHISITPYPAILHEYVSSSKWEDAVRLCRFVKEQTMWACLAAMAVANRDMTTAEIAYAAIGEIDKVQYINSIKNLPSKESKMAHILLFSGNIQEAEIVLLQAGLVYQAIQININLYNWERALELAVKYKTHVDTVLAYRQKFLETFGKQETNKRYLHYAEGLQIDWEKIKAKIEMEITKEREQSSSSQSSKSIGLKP
UniProt Q96CB8, whole entry, looked up: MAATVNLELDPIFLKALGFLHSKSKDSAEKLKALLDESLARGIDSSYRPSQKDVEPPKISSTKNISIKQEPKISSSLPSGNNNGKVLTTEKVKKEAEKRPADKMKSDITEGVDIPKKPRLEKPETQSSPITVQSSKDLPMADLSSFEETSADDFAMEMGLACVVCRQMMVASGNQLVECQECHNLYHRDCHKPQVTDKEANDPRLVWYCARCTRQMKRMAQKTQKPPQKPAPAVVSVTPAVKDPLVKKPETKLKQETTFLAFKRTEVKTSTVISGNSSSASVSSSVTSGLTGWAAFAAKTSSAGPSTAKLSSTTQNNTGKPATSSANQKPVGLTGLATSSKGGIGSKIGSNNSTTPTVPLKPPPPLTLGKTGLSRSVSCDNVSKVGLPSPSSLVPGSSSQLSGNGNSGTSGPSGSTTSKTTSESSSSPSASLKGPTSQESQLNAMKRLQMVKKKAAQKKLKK

How the values were obtained:
Experiment in all cases: log2 fold change, soluble protein after heating vs DMSO (PISA); higher = thermal stabilisation; K562 lysate, 10 uM; active = over 0.2 and 3.5 SD of the protein, either way, in both replicates (recomputed)
ibrutinib = compound: C=CC(=O)N1CCC[C@@H](n2nc(-c3ccc(Oc4ccccc4)cc3)c3c(N)ncnc32)C1 [ibrutinib]
In short: (§1)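 Values give the log-two fold change in thermal stability against solvent controls, from duplicates. Crude K562 extract at 1 mg/mL protein, made by dounce homogenisation in PBS pH 7.4 with 1 mM MgCl2, was treated with 10 μM compound for 30 min. After 3 min heating across 48°C-58°C, aliquots were pooled, adjusted to 0.5% NP-40 at 4°C and centrifuged at 21,000xg for 90 min. The supernatant was measured by TMTpro 16plex LC-MS/MS with channel sums equalised.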

[1] = compound: CC(=O)c1cnc2ccc(-c3cc(Cl)c(O)c(Cl)c3)nc2c1N[C@H]1CC[C@H](CN(C)C)CC1
In short: as §1

ralimetinib = compound: CC(C)(C)Cn1c(N)nc2ccc(-c3[nH]c(C(C)(C)C)nc3-c3ccc(F)cc3)nc21 [ralimetinib]
In short: as §1

[2] = compound: CC(C)(O)CC(=O)NCCn1ccc2ncnc(Nc3ccc(Oc4cccc(C(F)(F)F)c4)c(Cl)c3)c21
In short: as §1

[3] = compound: CC(C)C1=C2N=C(C=C(N2N=C1)NCC3=CC=CC=C3)NCCCCCCN
In short: as §1

[4] = compound: CC1=C(C(CC(=O)N1)C2=CC=C(C=C2)C(F)(F)F)C(=O)NC3=C(C=C4C(=C3)C=NN4)F
In short: as §1

[5] = compound: CC1=C(C2=C(C=C1)C(=O)C3=CC=CC=C3N2CCCN)C
In short: as §1

[6] = compound: CC1=C(C=C(C=C1)NC(=O)C2=CC(=CC=C2)C(C)(C)C#N)NC3=CC4=C(C=C3)N=CN(C4=O)C
In short: as §1

[7] = compound: CC1=C(C=C(C=C1)NC(=O)C2=CC(=CC=C2)N(C)C)NC(=O)C3=CC=C(C=C3)O
In short: as §1

[8] = compound: CC1=CC=C(C=C1)SC2=C3C=C(SC3=CN=C2)C(=O)N
In short: as §1

vemurafenib = compound: CCCS(=O)(=O)Nc1ccc(F)c(C(=O)c2c[nH]c3ncc(-c4ccc(Cl)cc4)cc23)c1F [vemurafenib]
In short: as §1

[9] = compound: CCCS(=O)(=O)Nc1ccc(F)c(C(=O)c2c[nH]c3ncc(Cl)cc23)c1F
In short: as §1

barasertib = compound: CCN(CCCOc1ccc2c(Nc3cc(CC(=O)Nc4cccc(F)c4)[nH]n3)ncnc2c1)CCOP(=O)(O)O [barasertib]
In short: as §1

[10] = compound: CC[C@@H]1C(=O)N(C)c2cnc(Nc3ccc(C(=O)NC4CCN(C)CC4)cc3OC)nc2N1C1CCCC1
In short: as §1

volasertib = compound: CC[C@@H]1C(=O)N(C)c2cnc(Nc3ccc(C(=O)N[C@H]4CC[C@H](N5CCN(CC6CC6)CC5)CC4)cc3OC)nc2N1C(C)C [volasertib]
In short: as §1

[11] = compound: CCn1c(C(=O)N(C2CC2)C2CC2)cc2c3c(ncn3C)c(Nc3cc(C)n(C)n3)nc21
In short: as §1

[12] = compound: CCn1cc(-c2ccnc3[nH]c(-c4cccc(CN(C)C)c4)cc23)c(-c2ccc(NC(=O)N(C)C)cc2)n1
In short: as §1

[13] = compound: CN1CCC(CNc2ccc3ncc(-c4cccc(OC(F)(F)F)c4)n3n2)CC1
In short: as §1

saracatinib = compound: CN1CCN(CCOc2cc(OC3CCOCC3)c3c(Nc4c(Cl)ccc5c4OCO5)ncnc3c2)CC1 [saracatinib]
In short: as §1

sotrastaurin = compound: CN1CCN(c2nc(C3=C(c4c[nH]c5ccccc45)C(=O)NC3=O)c3ccccc3n2)CC1 [sotrastaurin]
In short: as §1

Measured: log2 fold change

IMPA1 isoform 3 (UniProt P29218)
inactive: ibrutinib 0.012 | [1] 0.02 | ralimetinib -0.004 | [2] -0.027 | [3] -0.046 | [4] -0.017 | [5] -0.021 | [6] -0.003 | [7] -0.01 | [8] 0.021 | vemurafenib -0.004 | [9] 0.002 | barasertib -0.035 | [10] 0.015 | volasertib 0.025 | [11] -0.028 | [12] 0.118 | [13] -0.032 | saracatinib -0.011 | sotrastaurin 0.002

IFT74 (UniProt Q96LB3)
inactive: ibrutinib 0.005 | [1] -0.028 | ralimetinib 0.052 | [2] -0.112 | [3] 0.056 | [4] -0.045 | [5] -0.035 | [6] 0.06 | [7] 0.036 | [8] -0.072 | vemurafenib 0.018 | [9] 0.019 | barasertib 0.003 | [10] 0.164 | volasertib 0.073 | [11] -0.141 | [12] -0.18 | [13] 0.22 | saracatinib 0.024 | sotrastaurin 0.022

HTATIP2 isoform 3 (UniProt Q9BUP3)
inactive: ibrutinib -0.038 | [1] -0.004 | ralimetinib -0.008 | [2] 0.006 | [3] 0.001 | [4] 0.046 | [5] 0.026 | [6] -0.026 | [7] 0.034 | [8] -0.003 | vemurafenib -0.023 | [9] -0.003 | barasertib 0.027 | [10] 0.008 | volasertib -0.036 | [11] 0.043 | [12] 0.064 | [13] -0.109 | saracatinib -0.002 | sotrastaurin 0.052

IMMT (UniProt C9J406)
inactive: ibrutinib 0.119 | [1] 0.046 | ralimetinib 0.126 | [2] -0.14 | [3] -0.096 | [4] 0.099 | [5] -0.03 | [6] -0.002 | [7] 0.012 | [8] -0.015 | vemurafenib -0.018 | [9] -0.036 | barasertib -0.105 | [10] 0.098 | volasertib -0.015 | [11] 0.018 | [12] -0.464 | [13] -0.037 | saracatinib 0.074 | sotrastaurin 0.02

HSPH1 (UniProt Q92598)
inactive: ibrutinib -0.03 | [1] -0.014 | ralimetinib 0.001 | [2] -0.014 | [3] -0.004 | [4] 0.011 | [5] 0 | [6] -0.026 | [7] 0.018 | [8] 0.006 | vemurafenib -0.006 | [9] -0.004 | barasertib -0.019 | [10] 0.019 | volasertib -0.006 | [11] 0.006 | [12] -0.004 | [13] 0.003 | saracatinib -0.005 | sotrastaurin -0.002

Two consecutive records out of the list so far:
IMMT (UniProt C9J406)
inactive: ibrutinib 0.119 | [1] 0.046 | ralimetinib 0.126 | [2] -0.14 | [3] -0.096 | [4] 0.099 | [5] -0.03 | [6] -0.002 | [7] 0.012 | [8] -0.015 | vemurafenib -0.018 | [9] -0.036 | barasertib -0.105 | [10] 0.098 | volasertib -0.015 | [11] 0.018 | [12] -0.464 | [13] -0.037 | saracatinib 0.074 | sotrastaurin 0.02

HSPH1 (UniProt Q92598)
inactive: ibrutinib -0.03 | [1] -0.014 | ralimetinib 0.001 | [2] -0.014 | [3] -0.004 | [4] 0.011 | [5] 0 | [6] -0.026 | [7] 0.018 | [8] 0.006 | vemurafenib -0.006 | [9] -0.004 | barasertib -0.019 | [10] 0.019 | volasertib -0.006 | [11] 0.006 | [12] -0.004 | [13] 0.003 | saracatinib -0.005 | sotrastaurin -0.002

The list goes on.

ICE2 (UniProt Q659A1)
inactive: ibrutinib 0.024 | [1] 0.067 | ralimetinib 0.022 | [2] -0.06 | [3] -0.084 | [4] 0.002 | [5] -0.085 | [6] -0.023 | [7] -0.042 | [8] -0.115 | vemurafenib -0.036 | [9] -0.083 | barasertib 0.047 | [10] 0.062 | volasertib 0.104 | [11] -0.035 | [12] -0.002 | [13] -0.017 | saracatinib 0.003 | sotrastaurin 0.005

HUS1 (UniProt O60921)
inactive: ibrutinib -0.067 | [1] 0.011 | ralimetinib 0.081 | [2] -0.125 | [3] -0.035 | [4] 0 | [5] -0.014 | [6] 0.001 | [7] -0.008 | [8] 0.026 | vemurafenib -0.016 | [9] 0.006 | barasertib -0.012 | [10] -0.056 | volasertib -0.011 | [11] -0.014 | [12] -0.002 | [13] 0.065 | saracatinib 0.033 | sotrastaurin 0.009

ILF2 (UniProt Q12905)
inactive: ibrutinib 0 | [1] -0.02 | ralimetinib -0.017 | [2] -0.003 | [3] -0.003 | [4] 0.003 | [5] -0.068 | [6] 0.01 | [7] 0 | [8] -0.007 | vemurafenib 0.004 | [9] 0.015 | barasertib -0.004 | [10] 0.038 | volasertib 0.005 | [11] -0.013 | [12] 0.02 | [13] -0.022 | saracatinib -0.008 | sotrastaurin -0.009

INTS10 (UniProt Q9NVR2)
inactive: ibrutinib 0.079 | [1] 0.021 | ralimetinib 0.01 | [2] -0.02 | [3] -0.023 | [4] 0.036 | [5] 0 | [6] 0.002 | [7] -0.014 | [8] 0.036 | vemurafenib -0.008 | [9] -0.183 | barasertib 0.061 | [10] -0.129 | volasertib -0.088 | [11] -0.021 | [12] 0.14 | [13] -0.054 | saracatinib 0.052 | sotrastaurin 0.023

IKBIP (UniProt Q70UQ0)
inactive: ibrutinib 0.013 | [1] 0.001 | ralimetinib 0.041 | [2] -0.049 | [3] -0.054 | [4] 0.109 | [5] 0.001 | [6] -0.074 | [7] -0.011 | [8] 0.019 | vemurafenib -0.051 | [9] 0.008 | barasertib 0.004 | [10] -0.018 | volasertib -0.006 | [11] -0.007 | [12] -0.058 | [13] 0.018 | saracatinib 0.011 | sotrastaurin -0.039

IFRD1 (UniProt O00458)
inactive: ibrutinib -0.082 | [1] 0.018 | ralimetinib 0.029 | [2] -0.044 | [3] -0.114 | [4] 0 | [5] -0.028 | [6] -0.004 | [7] 0.032 | [8] 0 | vemurafenib -0.127 | [9] -0.048 | barasertib -0.036 | [10] -0.064 | volasertib -0.048 | [11] -0.006 | [12] 0.094 | [13] -0.076 | saracatinib -0.024 | sotrastaurin 0.008

INPP5B (UniProt P32019)
inactive: ibrutinib 0.019 | [1] 0.013 | ralimetinib -0.015 | [2] -0.052 | [3] -0.009 | [4] 0.04 | [5] -0.001 | [6] 0 | [7] 0.003 | [8] -0.001 | vemurafenib 0.026 | [9] 0.041 | barasertib 0.015 | [10] -0.016 | volasertib -0.037 | [11] 0.022 | [12] -0.139 | [13] 0.095 | saracatinib 0.021 | sotrastaurin 0.038

IKBIP isoform 4 (UniProt Q70UQ0)
inactive: ibrutinib 0.004 | [1] 0.019 | ralimetinib 0.022 | [2] -0.008 | [3] -0.016 | [4] 0.021 | [5] -0.014 | [6] 0.002 | [7] 0.022 | [8] 0.002 | vemurafenib -0.002 | [9] -0.005 | barasertib 0.026 | [10] 0.013 | volasertib 0.009 | [11] -0.016 | [12] -0.014 | [13] 0.003 | saracatinib -0.016 | sotrastaurin 0.055

IFT80 isoform 3 (UniProt Q9P2H3)
inactive: ibrutinib -0.058 | [1] 0.105 | ralimetinib -0.018 | [2] -0.079 | [3] -0.001 | [4] -0.103 | [5] -0.095 | [6] -0.1 | [7] -0.01 | [8] 0.005 | vemurafenib 0.033 | [9] 0.037 | barasertib 0.024 | [10] 0.183 | volasertib -0.025 | [11] -0.068 | [12] -0.082 | [13] -0.099 | saracatinib -0.008 | sotrastaurin 0.026

IGF2R (UniProt P11717)
inactive: ibrutinib 0.003 | [1] -0.003 | ralimetinib 0.015 | [2] -0.013 | [3] -0.022 | [4] 0.032 | [5] -0.008 | [6] -0.014 | [7] -0.011 | [8] -0.015 | vemurafenib -0.007 | [9] 0.008 | barasertib -0.005 | [10] 0.026 | volasertib 0.01 | [11] 0.007 | [12] -0.041 | [13] 0.049 | saracatinib -0.013 | sotrastaurin 0.055

INTS12 (UniProt Q96CB8)
inactive: ibrutinib -0.099 | [1] -0.035 | ralimetinib 0.1 | [2] 0.052 | [3] 0.009 | [4] 0.043 | [5] 0.074 | [6] 0.003 | [7] 0.045 | [8] -0.038 | vemurafenib -0.017 | [9] -0.03 | barasertib 0.02 | [10] 0.041 | volasertib 0.026 | [11] -0.007 | [12] 0.097 | [13] -0.096 | saracatinib 0.011 | sotrastaurin 0.059
